PubChem BioAssay AID1053208 – Peter MacCallum Cancer Centre, 2014

Purpose: 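Synthetic lethal interactions between gene loss and doxorubicin in osteosarcoma cells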 (primary screen)
System: mouse osteosarcoma cells, early-passage culture from an engineered mouse model of fibroblastic bone tumour
Reagent: siRNA pool against mouse genes, 40 nM
Time to read-out: about 120 h (48 h before drug, then 72 h with drug)
Treatment: doxorubicin 100 nM for 72 h, roughly 30-40% inhibitory dose
Measured: 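Luminescent ATP signal taken as viability with or without 100 nM doxorubicin for 72 h; mean of two wells set against non-targeting siRNA and turned into robust z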
Direction: viability z-score with doxorubicin: higher = more viable cells under doxorubicin; viability z-score without drug: higher = more viable cells with knock-down alone
Rule for the call: 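a pool counts as active when its viability z-score with doxorubicin is -2 or below and its z-score without drug lies between -2 and 2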
The whole screen tested about 17,000 reagents; this is a part drawn at random. 788 of them (4.7%) were called active. 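Calls rest on z-score classes alone; an extra cut-off of viability at most 70% of control was not applied to them.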 The numbers tell different reagents against one gene apart. Not all columns of the deposit are shown.

Vav3 → combined z-score class: no change with or without drug; viability z-score with doxorubicin: -0.45; viability z-score without drug: -0.84; activity call: inactive
Ogn → combined z-score class: no change with or without drug; viability z-score with doxorubicin: -0.45; viability z-score without drug: 0.34; activity call: inactive
Prokr1 → combined z-score class: no change with or without drug; viability z-score with doxorubicin: 1.35; viability z-score without drug: -0.17; activity call: inactive
Tas2r123 → combined z-score class: no change with or without drug; viability z-score with doxorubicin: -0.22; viability z-score without drug: 0; activity call: inactive
C4bp → combined z-score class: no change with or without drug; viability z-score with doxorubicin: -0.45; viability z-score without drug: 0.17; activity call: inactive
9330119M13Rik → combined z-score class: no change with or without drug; viability z-score with doxorubicin: 0.22; viability z-score without drug: -0.17; activity call: inactive
Atp6v1b1 → combined z-score class: no change with or without drug; viability z-score with doxorubicin: -0.9; viability z-score without drug: 0.84; activity call: inactive
Rtf2 #1 → combined z-score class: no change with or without drug; viability z-score with doxorubicin: 1.69; viability z-score without drug: 0; activity call: inactive
Rtf2 #2 → combined z-score class: no change with or without drug; viability z-score with doxorubicin: -0.79; viability z-score without drug: -0.67; activity call: inactive
Vmn1r16 → combined z-score class: no change with or without drug; viability z-score with doxorubicin: -1.01; viability z-score without drug: -0.17; activity call: inactive
Psd → combined z-score class: no change with or without drug; viability z-score with doxorubicin: 1.35; viability z-score without drug: -0.67; activity call: inactive
Capn8 → combined z-score class: no change with or without drug; viability z-score with doxorubicin: -0.45; viability z-score without drug: -0.51; activity call: inactive
Gzmc → combined z-score class: no change with or without drug; viability z-score with doxorubicin: 0.22; viability z-score without drug: 1.52; activity call: inactive
Krt2 → combined z-score class: no change with or without drug; viability z-score with doxorubicin: -0.45; viability z-score without drug: -1.18; activity call: inactive
Or6c211 → combined z-score class: no change with or without drug; viability z-score with doxorubicin: -1.57; viability z-score without drug: 0.51; activity call: inactive
Robo1 → combined z-score class: no change with or without drug; viability z-score with doxorubicin: 0; viability z-score without drug: -0.51; activity call: inactive
Med24 → combined z-score class: no change with or without drug; viability z-score with doxorubicin: 0; viability z-score without drug: 0.84; activity call: inactive
Tubb5 → combined z-score class: no change with or without drug; viability z-score with doxorubicin: 0.67; viability z-score without drug: -0.84; activity call: inactive
Prm2 → combined z-score class: no change with or without drug; viability z-score with doxorubicin: -1.12; viability z-score without drug: 1.18; activity call: inactive
Ms4a19 → combined z-score class: no change with or without drug; viability z-score with doxorubicin: -1.01; viability z-score without drug: -0.84; activity call: inactive
Mtr → combined z-score class: no change with or without drug; viability z-score with doxorubicin: 0.34; viability z-score without drug: 0.67; activity call: inactive
Gm4736 → combined z-score class: no change with or without drug; viability z-score with doxorubicin: -1.8; viability z-score without drug: 0; activity call: inactive
C8a → combined z-score class: no change with or without drug; viability z-score with doxorubicin: 0.79; viability z-score without drug: 0.51; activity call: inactive
Casz1 → combined z-score class: no change with or without drug; viability z-score with doxorubicin: 0.22; viability z-score without drug: -0.17; activity call: inactive
Zic4 → combined z-score class: no change with or without drug; viability z-score with doxorubicin: 0.56; viability z-score without drug: 1.01; activity call: inactive
Decr1 → combined z-score class: no change with or without drug; viability z-score with doxorubicin: 0.56; viability z-score without drug: -0.67; activity call: inactive
Emsy → combined z-score class: no change with or without drug; viability z-score with doxorubicin: -0.45; viability z-score without drug: 0.67; activity call: inactive
Msantd4 → combined z-score class: no change with or without drug; viability z-score with doxorubicin: -1.12; viability z-score without drug: -0.84; activity call: inactive
Toe1 → combined z-score class: low cell count with and without drug; viability z-score with doxorubicin: -2.02; viability z-score without drug: -3.2; activity call: inactive
Akr1c13 → combined z-score class: no change with or without drug; viability z-score with doxorubicin: 0.22; viability z-score without drug: -0.17; activity call: inactive
Or2y1b → combined z-score class: no change with or without drug; viability z-score with doxorubicin: 1.01; viability z-score without drug: -0.67; activity call: inactive
Surf4 → combined z-score class: no change with or without drug; viability z-score with doxorubicin: 0.22; viability z-score without drug: -0.17; activity call: inactive
Limk1 → combined z-score class: no change with or without drug; viability z-score with doxorubicin: -0.22; viability z-score without drug: -0.51; activity call: inactive
Clec4b1 → combined z-score class: no change with or without drug; viability z-score with doxorubicin: -1.57; viability z-score without drug: -0.51; activity call: inactive
Robo4 → combined z-score class: no change with or without drug; viability z-score with doxorubicin: 0.9; viability z-score without drug: 1.01; activity call: inactive
Rps25 → combined z-score class: no change with or without drug; viability z-score with doxorubicin: -0.34; viability z-score without drug: -1.69; activity call: inactive

Targets above whose gene name begins with T or t:
Tas2r123 → combined z-score class: no change with or without drug; viability z-score with doxorubicin: -0.22; viability z-score without drug: 0; activity call: inactive
Tubb5 → combined z-score class: no change with or without drug; viability z-score with doxorubicin: 0.67; viability z-score without drug: -0.84; activity call: inactive
Toe1 → combined z-score class: low cell count with and without drug; viability z-score with doxorubicin: -2.02; viability z-score without drug: -3.2; activity call: inactive
